Assay [1] has as its target T1, HA-tagged TBK1 wild-type (TANK binding kinase 1) (human) (UniProt Q9UHD2).
T1 sequence: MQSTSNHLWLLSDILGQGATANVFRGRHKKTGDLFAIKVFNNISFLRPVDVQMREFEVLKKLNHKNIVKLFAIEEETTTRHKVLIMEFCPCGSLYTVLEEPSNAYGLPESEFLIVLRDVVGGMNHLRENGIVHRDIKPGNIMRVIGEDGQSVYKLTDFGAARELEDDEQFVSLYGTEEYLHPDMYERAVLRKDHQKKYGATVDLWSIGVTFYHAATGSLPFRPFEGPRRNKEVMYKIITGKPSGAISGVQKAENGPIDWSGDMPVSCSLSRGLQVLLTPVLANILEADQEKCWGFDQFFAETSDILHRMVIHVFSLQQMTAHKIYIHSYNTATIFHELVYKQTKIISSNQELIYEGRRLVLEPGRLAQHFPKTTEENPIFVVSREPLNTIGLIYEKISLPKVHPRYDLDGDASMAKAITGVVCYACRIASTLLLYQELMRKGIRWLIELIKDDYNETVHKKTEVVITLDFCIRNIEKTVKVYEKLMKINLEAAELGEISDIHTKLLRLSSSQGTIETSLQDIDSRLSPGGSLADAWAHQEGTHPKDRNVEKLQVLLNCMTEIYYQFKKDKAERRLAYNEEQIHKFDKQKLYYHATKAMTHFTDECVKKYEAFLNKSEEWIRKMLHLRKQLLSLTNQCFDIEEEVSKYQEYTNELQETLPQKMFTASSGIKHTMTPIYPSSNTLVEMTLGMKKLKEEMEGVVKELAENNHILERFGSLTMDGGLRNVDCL
As to the kind of experiment: co-IP; HEK293T cotransfected with HA-TBK1 (WT or mutant) and FLAG-OPTN WT, 48 h; IP buffer 50 mM tris pH 7.4, 150 mM NaCl, 1% Triton-X-100, 100 mM CaCl2; anti-HA tag antibody with Dynabeads Protein G, room temperature 2 h; 6 washes; Western blot (n = 3).

The chains behind the UniProt entries cited, without tags or fusion partners.
UniProt Q96CV9: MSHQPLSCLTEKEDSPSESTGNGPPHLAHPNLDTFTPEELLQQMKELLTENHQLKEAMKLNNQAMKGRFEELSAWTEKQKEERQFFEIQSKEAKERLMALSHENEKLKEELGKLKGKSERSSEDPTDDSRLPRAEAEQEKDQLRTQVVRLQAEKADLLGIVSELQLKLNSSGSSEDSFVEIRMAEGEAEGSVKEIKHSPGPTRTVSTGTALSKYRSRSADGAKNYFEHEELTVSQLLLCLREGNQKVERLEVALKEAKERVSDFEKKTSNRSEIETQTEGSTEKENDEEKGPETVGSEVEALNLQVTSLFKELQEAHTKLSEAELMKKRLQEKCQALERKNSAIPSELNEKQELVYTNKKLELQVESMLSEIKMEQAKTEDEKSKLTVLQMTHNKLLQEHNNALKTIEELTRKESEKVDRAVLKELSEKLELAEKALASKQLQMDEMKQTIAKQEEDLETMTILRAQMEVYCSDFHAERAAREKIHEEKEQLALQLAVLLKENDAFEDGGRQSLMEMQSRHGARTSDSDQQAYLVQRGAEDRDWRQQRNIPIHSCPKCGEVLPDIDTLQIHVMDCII

The target of assay [2] is T2, HA-tagged TBK1 p.C471Y (human) (UniProt Q9UHD2).
T2 sequence: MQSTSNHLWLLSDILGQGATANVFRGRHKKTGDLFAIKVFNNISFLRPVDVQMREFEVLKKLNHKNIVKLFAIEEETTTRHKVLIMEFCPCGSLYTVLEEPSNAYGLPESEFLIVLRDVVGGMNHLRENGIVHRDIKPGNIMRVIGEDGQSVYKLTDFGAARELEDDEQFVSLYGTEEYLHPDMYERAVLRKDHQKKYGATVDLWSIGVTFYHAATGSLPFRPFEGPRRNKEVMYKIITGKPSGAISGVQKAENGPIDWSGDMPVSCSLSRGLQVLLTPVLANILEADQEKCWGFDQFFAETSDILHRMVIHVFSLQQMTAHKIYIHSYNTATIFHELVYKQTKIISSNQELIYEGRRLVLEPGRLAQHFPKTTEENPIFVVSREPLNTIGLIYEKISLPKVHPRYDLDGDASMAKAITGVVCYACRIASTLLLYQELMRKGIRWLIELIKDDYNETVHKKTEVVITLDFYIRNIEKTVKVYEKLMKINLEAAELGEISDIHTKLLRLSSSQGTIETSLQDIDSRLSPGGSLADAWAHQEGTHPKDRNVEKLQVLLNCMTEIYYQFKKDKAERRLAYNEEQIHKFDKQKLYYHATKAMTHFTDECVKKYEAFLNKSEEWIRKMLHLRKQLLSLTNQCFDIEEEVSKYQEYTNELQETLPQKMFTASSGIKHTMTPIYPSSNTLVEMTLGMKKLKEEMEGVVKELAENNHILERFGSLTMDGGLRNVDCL
Described as above.

Assay [3] concerns the target T3, HA-tagged TBK1 wild-type (TANK binding kinase 1) (human), Q9UHD2.
T3 chain: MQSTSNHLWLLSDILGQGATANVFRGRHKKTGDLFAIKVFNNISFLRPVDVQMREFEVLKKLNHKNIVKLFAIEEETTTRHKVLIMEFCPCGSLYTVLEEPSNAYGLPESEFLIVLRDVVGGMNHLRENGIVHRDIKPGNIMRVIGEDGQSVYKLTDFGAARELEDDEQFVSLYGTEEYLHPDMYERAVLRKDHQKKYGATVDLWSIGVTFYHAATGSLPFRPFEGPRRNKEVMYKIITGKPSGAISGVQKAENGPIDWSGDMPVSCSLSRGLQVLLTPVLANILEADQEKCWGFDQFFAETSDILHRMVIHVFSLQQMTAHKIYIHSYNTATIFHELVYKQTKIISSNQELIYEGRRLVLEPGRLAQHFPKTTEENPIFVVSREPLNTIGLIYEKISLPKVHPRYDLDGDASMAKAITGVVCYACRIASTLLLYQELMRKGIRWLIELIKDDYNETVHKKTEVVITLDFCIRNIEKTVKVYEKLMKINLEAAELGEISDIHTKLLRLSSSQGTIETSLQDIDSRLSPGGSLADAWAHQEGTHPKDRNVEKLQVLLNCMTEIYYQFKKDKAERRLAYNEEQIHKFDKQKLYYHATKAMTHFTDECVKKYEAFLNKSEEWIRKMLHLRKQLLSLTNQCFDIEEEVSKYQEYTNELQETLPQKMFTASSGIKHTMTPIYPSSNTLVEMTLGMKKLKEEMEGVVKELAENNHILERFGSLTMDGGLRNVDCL
As to the kind of experiment: native gel or EMSA; lysates of HEK293T transfected with HA-TBK1 WT or mutant, NativePAGE Novex Bis-Tris gel, blot probed with anti-HA tag; dimer and monomer bands (n = 3). The following applies: remark: other sources report otherwise.

Assay [4] concerns the target T2, HA-tagged TBK1 p.C471Y (human). Described as above.
The target of assay [5] is HA-tagged TBK1 p.G217R (human) (UniProt Q9UHD2). The description is as above.

Results are given in words; binding and its absence hold for the method and conditions named. For some assays here: Binding seen in cells or lysates may run through a third protein. Some binding calls cover weakened binding; strength is not graded here. Sequences can lack the tags named with a protein.

Consider “FLAG-tagged optineurin (OPTN) wild type (from UniProt Q96CV9 1-577)”, for which the binding result in assay [1] and in assay [2] was “binds” each time.

B1: HA-tagged TBK1 wild-type (TANK binding kinase 1), Q9UHD2 1-729 (enzyme)
chain: MQSTSNHLWLLSDILGQGATANVFRGRHKKTGDLFAIKVFNNISFLRPVDVQMREFEVLKKLNHKNIVKLFAIEEETTTRHKVLIMEFCPCGSLYTVLEEPSNAYGLPESEFLIVLRDVVGGMNHLRENGIVHRDIKPGNIMRVIGEDGQSVYKLTDFGAARELEDDEQFVSLYGTEEYLHPDMYERAVLRKDHQKKYGATVDLWSIGVTFYHAATGSLPFRPFEGPRRNKEVMYKIITGKPSGAISGVQKAENGPIDWSGDMPVSCSLSRGLQVLLTPVLANILEADQEKCWGFDQFFAETSDILHRMVIHVFSLQQMTAHKIYIHSYNTATIFHELVYKQTKIISSNQELIYEGRRLVLEPGRLAQHFPKTTEENPIFVVSREPLNTIGLIYEKISLPKVHPRYDLDGDASMAKAITGVVCYACRIASTLLLYQELMRKGIRWLIELIKDDYNETVHKKTEVVITLDFCIRNIEKTVKVYEKLMKINLEAAELGEISDIHTKLLRLSSSQGTIETSLQDIDSRLSPGGSLADAWAHQEGTHPKDRNVEKLQVLLNCMTEIYYQFKKDKAERRLAYNEEQIHKFDKQKLYYHATKAMTHFTDECVKKYEAFLNKSEEWIRKMLHLRKQLLSLTNQCFDIEEEVSKYQEYTNELQETLPQKMFTASSGIKHTMTPIYPSSNTLVEMTLGMKKLKEEMEGVVKELAENNHILERFGSLTMDGGLRNVDCL
As to B1, in assay [3], the binding entry is given as “binds”.

B2: HA-tagged TBK1 p.C471Y (enzyme, UniProt Q9UHD2 1-729)
chain: MQSTSNHLWLLSDILGQGATANVFRGRHKKTGDLFAIKVFNNISFLRPVDVQMREFEVLKKLNHKNIVKLFAIEEETTTRHKVLIMEFCPCGSLYTVLEEPSNAYGLPESEFLIVLRDVVGGMNHLRENGIVHRDIKPGNIMRVIGEDGQSVYKLTDFGAARELEDDEQFVSLYGTEEYLHPDMYERAVLRKDHQKKYGATVDLWSIGVTFYHAATGSLPFRPFEGPRRNKEVMYKIITGKPSGAISGVQKAENGPIDWSGDMPVSCSLSRGLQVLLTPVLANILEADQEKCWGFDQFFAETSDILHRMVIHVFSLQQMTAHKIYIHSYNTATIFHELVYKQTKIISSNQELIYEGRRLVLEPGRLAQHFPKTTEENPIFVVSREPLNTIGLIYEKISLPKVHPRYDLDGDASMAKAITGVVCYACRIASTLLLYQELMRKGIRWLIELIKDDYNETVHKKTEVVITLDFYIRNIEKTVKVYEKLMKINLEAAELGEISDIHTKLLRLSSSQGTIETSLQDIDSRLSPGGSLADAWAHQEGTHPKDRNVEKLQVLLNCMTEIYYQFKKDKAERRLAYNEEQIHKFDKQKLYYHATKAMTHFTDECVKKYEAFLNKSEEWIRKMLHLRKQLLSLTNQCFDIEEEVSKYQEYTNELQETLPQKMFTASSGIKHTMTPIYPSSNTLVEMTLGMKKLKEEMEGVVKELAENNHILERFGSLTMDGGLRNVDCL
As for B2, the binding result in assay [4] is reported as “binds”.

B3: HA-tagged TBK1 p.G217R (enzyme, UniProt Q9UHD2 1-729)
chain: MQSTSNHLWLLSDILGQGATANVFRGRHKKTGDLFAIKVFNNISFLRPVDVQMREFEVLKKLNHKNIVKLFAIEEETTTRHKVLIMEFCPCGSLYTVLEEPSNAYGLPESEFLIVLRDVVGGMNHLRENGIVHRDIKPGNIMRVIGEDGQSVYKLTDFGAARELEDDEQFVSLYGTEEYLHPDMYERAVLRKDHQKKYGATVDLWSIGVTFYHAATRSLPFRPFEGPRRNKEVMYKIITGKPSGAISGVQKAENGPIDWSGDMPVSCSLSRGLQVLLTPVLANILEADQEKCWGFDQFFAETSDILHRMVIHVFSLQQMTAHKIYIHSYNTATIFHELVYKQTKIISSNQELIYEGRRLVLEPGRLAQHFPKTTEENPIFVVSREPLNTIGLIYEKISLPKVHPRYDLDGDASMAKAITGVVCYACRIASTLLLYQELMRKGIRWLIELIKDDYNETVHKKTEVVITLDFCIRNIEKTVKVYEKLMKINLEAAELGEISDIHTKLLRLSSSQGTIETSLQDIDSRLSPGGSLADAWAHQEGTHPKDRNVEKLQVLLNCMTEIYYQFKKDKAERRLAYNEEQIHKFDKQKLYYHATKAMTHFTDECVKKYEAFLNKSEEWIRKMLHLRKQLLSLTNQCFDIEEEVSKYQEYTNELQETLPQKMFTASSGIKHTMTPIYPSSNTLVEMTLGMKKLKEEMEGVVKELAENNHILERFGSLTMDGGLRNVDCL
B3: the binding result in assay [5] is on record as “binds weakly”.
